Laboratory results reported in PubChem BioAssay AID1347131 (National Center for Advancing Translational Sciences (NCATS), 2019).
Hit rate of the full screen: of about 410,000 compounds, about 2,000 (0.49%) were called active. Inconclusive results, whose numbers are uncertain, are shown with a selection of clear calls. The call rests on the fitted dose curve; tested in HEK293 reporter line. Where the call is inconclusive, the potency comes from a doubtful curve fit.

assay: qHTS Assay for Foot and Mouth Disease Virus Antivirals: Primary Screen against the MLPCN compound library; conditions: FMDV antiviral cell-based qHTS; activity, negative = inhibition: at 57.9 µM (top of the series); further: nearly all actives have a fitted effect of over 55% in size
Potency means the concentration at half of the fitted maximal effect.

SMILES	Potency	activity, negative = inhibition
CCC(=NC(C)c1ccccc1)c1c(O)n(C)c(=O)n(C)c1=O (configuration not stated)	inconclusive: 12.6 µM [inhibitor, partial curve, poor fit]	
CCOc1cc(-c2c(C#N)c(=O)[nH]c3c2c(C)nn3-c2ccc(F)cc2)ccc1O		inactive: -34.3%
Cc1c(C#N)c(N)nc2c3c(sc12)NC(=O)CC3c1ccc(Cl)cc1 (configuration not stated)	inconclusive: 22.4 µM [inhibitor, partial curve, poor fit]	
O=C(Nc1ccc(-c2cn3c(n2)SCC3)cc1)c1ccc2ccccc2n1	inconclusive: 25.1 µM [inhibitor, single point]	
O=C(Nc1nccs1)c1cc2c(s1)CCCCC2	inconclusive: 8.91 µM [inhibitor, partial curve, poor fit]	
Cc1ccc(-c2csc(NC3OC(=O)c4ccccc43)n2)cc1 (configuration not stated)	inconclusive: 20 µM [inhibitor, partial curve, poor fit]	
COc1ccccc1OCCn1cc(C=O)c2ccccc21	inconclusive: 11.2 µM [inhibitor, partial curve, poor fit]	
COc1ccccc1C(C)NC(=O)CCC(=O)N1CCN(S(=O)(=O)c2ccc(Cl)cc2)CC1 (configuration not stated)	inconclusive: 35.5 µM [inhibitor, partial curve, poor fit]	
Cc1nn(C)c(C)c1NS(=O)(=O)c1ccccc1	inconclusive: 31.6 µM [inhibitor, partial curve, poor fit]	
COc1ccc(N2C(=O)/C(=C/C=C/c3ccccc3[N+](=O)[O-])C(=O)NC2=S)cc1	inconclusive: 22.4 µM [inhibitor, partial curve, poor fit]	
COc1ccc(CCNC(=O)CSc2nnc(-c3ccccc3)c3ccccc23)cc1OC		inactive: -34.5%
CCOC(=O)c1c(NC(=O)COC(=O)c2ccccc2NC)sc(C(=O)N(C)C)c1C	inconclusive: 25.1 µM [inhibitor, partial curve, poor fit]	
O=C(Nc1ccccc1C(=O)N/N=C/c1ccc(O)cc1)c1ccccc1	inconclusive: 17.8 µM [inhibitor, single point]	
O=C(Nc1ccc2c(c1)nc1n2CCCCC1)c1cc(S(=O)(=O)N2CCOCC2)ccc1Cl	inconclusive: 25.1 µM [inhibitor, partial curve, poor fit]	
Cc1cccc(CN2CCc3nc(N4CCN(c5ccccn5)CC4)ncc3C2)c1	inconclusive: 14.1 µM [inhibitor, partial curve, poor fit]	
CC(C)c1cccc(C(C)C)c1NC(=O)CNCC(O)c1ccccc1 (configuration not stated)		inactive: -30.4%
CC1C(=O)N(Cc2ccc([N+](=O)[O-])cc2)c2ccccc2N1C(=O)c1c(F)cccc1F (configuration not stated)	inconclusive: 35.5 µM [inhibitor, partial curve, poor fit]	
CN(C)CCOC(C1CCCCC1)C1CCCCC1	inconclusive: 22.4 µM [inhibitor, partial curve, poor fit]	
O=c1c2ccccc2oc2cc(C#CC3(O)CCCCC3)ccc12	inconclusive: 11.2 µM [inhibitor, partial curve, poor fit]	

Entries above that contain a halogen:
SMILES	Potency	activity, negative = inhibition
CCOc1cc(-c2c(C#N)c(=O)[nH]c3c2c(C)nn3-c2ccc(F)cc2)ccc1O		inactive: -34.3%
Cc1c(C#N)c(N)nc2c3c(sc12)NC(=O)CC3c1ccc(Cl)cc1 (configuration not stated)	inconclusive: 22.4 µM [inhibitor, partial curve, poor fit]	
COc1ccccc1C(C)NC(=O)CCC(=O)N1CCN(S(=O)(=O)c2ccc(Cl)cc2)CC1 (configuration not stated)	inconclusive: 35.5 µM [inhibitor, partial curve, poor fit]	
O=C(Nc1ccc2c(c1)nc1n2CCCCC1)c1cc(S(=O)(=O)N2CCOCC2)ccc1Cl	inconclusive: 25.1 µM [inhibitor, partial curve, poor fit]	
CC1C(=O)N(Cc2ccc([N+](=O)[O-])cc2)c2ccccc2N1C(=O)c1c(F)cccc1F (configuration not stated)	inconclusive: 35.5 µM [inhibitor, partial curve, poor fit]	

Carrying on:

SMILES	Potency	activity, negative = inhibition
CCCCN(C(=O)CCOc1ccc(OCC)cc1)c1c(N)n(Cc2ccccc2)c(=O)[nH]c1=O	inconclusive: 1.41 µM [inhibitor, full curve]	
COc1cc(OC)c(NS(=O)(=O)c2ccc3c(c2)NC(=O)CCS3)cc1Cl	inconclusive: 10 µM [inhibitor, partial curve, poor fit]	
CC1Sc2ccc(S(=O)(=O)N(C)Cc3ccccc3)cc2NC1=O (configuration not stated)	inconclusive: 28.2 µM [inhibitor, partial curve, poor fit]	
COC(=O)c1sc(C(F)(F)F)c(-c2ccccc2)c1S(=O)(=O)NC(C)(C)C		inconclusive: -38.3% [inhibitor]
Cc1ccc([C@H]2C(C#N)=C(N)Oc3cc(C)oc(=O)c32)o1	inconclusive: 25.1 µM [inhibitor, partial curve, poor fit]	
CCOC(=O)C(C(=O)OCC)C(C(=O)OCC)N1CCOCC1 (configuration not stated)	inconclusive: 31.6 µM [inhibitor, partial curve, poor fit]	
Cc1ccc(C(=O)Cn2c3c(sc2=N)CCCC3)cc1	active: 7.94 µM	
Cc1cccc(NC(=O)c2cnc3ccccn3c2=O)c1	inconclusive: 15.8 µM [inhibitor, single point]	
CCC(Sc1nc2n[nH]c(C)c2c(=N)n1-c1cccc(Cl)c1C)C(=O)N(CC)CC (configuration not stated)		inconclusive: -31.5% [inhibitor]
C=CCn1c(Cc2ccccc2)nc2c(cnn2-c2ccccc2)c1=O	inconclusive: 28.2 µM [inhibitor, partial curve, poor fit]	
CCOC(=O)C1CCCN(Cc2nc(N)nc(Nc3ccc(Cl)cc3)n2)C1 (configuration not stated)	inconclusive: 28.2 µM [inhibitor, partial curve, poor fit]	
CCOC(=O)c1ccc(NC(=O)c2ccc3c(c2)C(=O)N(CC2CCCO2)C3=O)cc1 (configuration not stated)	inconclusive: 28.2 µM [inhibitor, partial curve, poor fit]	
CCCCOC(=O)CNc1nnc(SCC(=O)OCC)[nH]c1=O	inconclusive: 39.8 µM [inhibitor, single point]	
Cc1ccc(OCC(=O)Nc2ccc3c(c2)nc(CCNC(=O)c2ccco2)n3C)cc1		inactive: -39.6%
CN(CC(=O)Nc1nc2ccccc2s1)S(=O)(=O)c1ccc(Br)cc1	inconclusive: 35.5 µM [inhibitor, partial curve, poor fit]	
Cc1csc(NC(=O)c2ccc(C)c([N+](=O)[O-])c2)n1	inconclusive: 22.4 µM [inhibitor, single point]	
COC(=O)C1=C(C)N(Cc2ccccc2)C(=NCc2cccc(C(F)(F)F)c2)N[C@H]1c1cccc(F)c1	inconclusive: 39.8 µM [inhibitor, partial curve, poor fit]	
O=C(N/N=C/CCc1ccccc1)c1ccc(CN2c3cccc4cccc(c34)S2(=O)=O)cc1	inconclusive: 39.8 µM [inhibitor, single point]	
